No constants are given. Whether binding was seen depends on the method and setting. Binding seen in cells or lysates may run through a third protein. Some binding calls cover weakened binding; strength is not graded here. Where a sequence is shown, tags or fusion partners need not be part of it.
Molecular target: T1, GFP-DmRad1 (Drosophila) (UniProt Q9VQD4)
T1 sequence: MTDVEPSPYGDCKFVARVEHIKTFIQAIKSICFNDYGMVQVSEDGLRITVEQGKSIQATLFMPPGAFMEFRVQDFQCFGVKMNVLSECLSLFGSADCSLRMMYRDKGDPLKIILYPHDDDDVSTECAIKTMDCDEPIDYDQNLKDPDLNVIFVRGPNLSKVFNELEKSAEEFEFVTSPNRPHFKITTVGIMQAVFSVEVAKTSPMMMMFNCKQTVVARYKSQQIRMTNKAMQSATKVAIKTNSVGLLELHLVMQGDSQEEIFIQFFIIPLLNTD
Experiment: co-IP; HA-DmHus1, FLAG-DmRad9A and GFP-DmRad1 co-expressed in S2 cells; lysis buffer PBS, 1% Triton X-100, protease inhibitors; pre-cleared extracts incubated overnight at 4°C with anti-GFP rabbit antibodies, recovered on protein A-coated beads for 2 h at 4°C; western blots with anti-HA or …; normal rabbit IgG as negative control

B1: FLAG-DmRad9A (protein, UniProt O96533 1-456)
chain: MKYTLEGSNARVIAKAVQSLSKVGKEMFIEIDQQSLQMRAINATQSAVGSISFKRSMFEVYDMPPHSDFYCKISMKGCLAVFRNMNEVEYCELNLLDNQTNLQVNLRCKLETTKEATISIIDDQNINTNINTDQMPNIIRGDHKLLTDISNNFNSSEEELTLEANSGSVVAKNYIEGARVNDKFMRTQLKLKPSEFEQYQVTKETVITFCIKEFRAFLLFAECLNASLTLEFDEAGMPFLLKIKKHGEIECLLIMSTLSPDDISFSEDYCQKDLTVQDEDVRAAAAKRKSSVSKPNVTNKRKGSSSEPAAVQPKRRVEETQLESSLDNPLFQFRDSEAPSVQHPRILAEVDTVVLIEDEAEQEALMLAAADAALEASMAPAPEPPNSTEVCFINTDDSQQPKPAKSSSDEDETIPQSPERPNKVLGVLLGLLQGCVSRLKTMLRLDEHLISGYELL
- binding: binds

Reference: PMC3362529
